Where “and” joins values, the source holds several entries; their conditions need not be identical. Identical values can stand only once.
Test: Experimental velocity of single fragrance ingredients (60 cm divided by time to olfactory detection) from model powder detergent in water
Settings: Table 1, Class 1 ingredients, 10 g model powder detergent in 2 liters of water, 25° C.

CC12CCC(CC1)C(C)(C)O2 [1,3,3-trimethyl-2-oxabicyclo[2.2.2]octane] and CC1=CCC2CC1C2(C)C (stereo not shown) [2,6,6-trimethylbicyclo[3.1.1]hept-2-ene] are within 1.5-fold of each other in “EV (Experimental velocity)” value: 13 cm/s for the first, 9 cm/s for the second.

CC(=O)c1oc2ccccc2c1C [1-(3-methylbenzofuran-2-yl)ethan-1-one] and CC1=CC(C)OC(C(C)c2ccccc2)C1 (stereo not shown) [3,6-dihydro-4,6-dimethyl-2-(1-phenylethyl)-2H-pyran] are the same in “EV (Experimental velocity)” value: 10 cm/s for the first, 10 cm/s for the second.

C=CCCC(=O)C1=CCCC(C)(C)C1 [1-(5,5-dimethylcyclohex-1-en-1-yl)pent-4-en-1-one] and CC1(C)C2CC=C(CCC=O)C1C2 (stereo not shown) [6,6-dimethyl 2-norpinene-2-propionaldehyde] are within 1.5-fold of each other in “EV (Experimental velocity)” value: 10 cm/s for the first, 9 cm/s for the second.

COc1ccc(C)cc1 [1-methoxy-4-methylbenzene] and COc1nccnc1CC(C)C [2-isobutyl-3-methoxypyrazine] are the same in “EV (Experimental velocity)” value: 9 cm/s for the first, 9 cm/s for the second.

c1coc(CSSCc2ccco2)c1 [2,2′-(dithiodimethylene)di-furan] and c1ccc(CCCc2ccccn2)cc1 [2-(3-phenylpropyl)pyridine] are within 1.5-fold of each other in “EV (Experimental velocity)” value: 8 cm/s for the first, 9 cm/s for the second.

CC1=CC(C)C(C=O)C(C)C1 (stereo not shown) [2,4,6-trimethyl 3-cyclohexene-1-carboxaldehyde] and CC1=CCC(C=O)C(C)C1 (stereo not shown) [4,6-dimethylcyclohex-3-enecarbaldehyde] are within 1.5-fold of each other in “EV (Experimental velocity)” value: 13 cm/s for the first, 10 cm/s for the second.

CCC=CCCC=CC#N [2,6-nonadienenitrile] and CC/C=C\CC/C=C/CO [2-trans 6-cis nonadienol] are within 1.5-fold of each other in “EV (Experimental velocity)” value: 16 cm/s for the first, 12 cm/s for the second.

CC(C)Cc1nccs1 [2-isobutylthiazole] and Cc1csc(C(C)C)n1 [2-isopropyl-4-methylthiazole] are within 1.5-fold of each other in “EV (Experimental velocity)” value: 10 cm/s for the first, 9 cm/s for the second.

CC(C)=CCCC(C)=CC=O [3,7-dimethyl-2,6-octadienal] and CC1CCC(C(C)C)C(=O)C1 (stereo not shown) [5-methyl-2-(1-methylethyl)cyclohexanone] are within 1.5-fold of each other in “EV (Experimental velocity)” value: 10 cm/s for the first, 9 cm/s for the second.

For C=C1CCOC(c2ccccc2)C1 (stereo not shown) [4-methylene-2-phenyltetrahydro-2H-pyran], the “EV (Experimental velocity)” value was 10 cm/s.

For C=C(C)C1CC=C(C)CC1 (stereo not shown) [1-methyl-4-(prop-1-en-2-yl)cyclohex-1-ene], the “EV (Experimental velocity)” value was 11 cm/s and 9 cm/s.

Same assay, conditions: Table 2, Class 2 ingredients, 10 g model powder detergent in 2 liters of water, 25° C.

5-alkyldihydro-2(3H)-furanone and C=CCCC(=O)C1=CC(C)(C)CCC1 [1-(3,3-dimethyl-1-cyclohexen-1-yl)-4-penten-1-one] are within 1.5-fold of each other in “EV (Experimental velocity)” value: 8 cm/s for the first, 5.5 cm/s for the second.

CC1=CCC(=C(C)C)CC1 [1-methyl-4-(propan-2-ylidene)cyclohex-1-ene] and CC1CCC2C(C)(C)C3CC12CC1OC(C)(C)OC13C (stereo not shown) [2,2,5,8,8,9a-hexamethyloctahydro-3aH-4a,9-methanoazuleno[5,6-d][1,3]dioxole] are within 1.5-fold of each other in “EV (Experimental velocity)” value: 8 cm/s for the first, 6 cm/s for the second.

CC1=CCC2CC1C2(C)C (stereo not shown) [2,6,6-trimethylbicyclo[3.1.1]hept-2-ene] and CC(C)=CCCC(C)C=O (stereo not shown) [2,6-dimethylhept-5-enal] are within 1.5-fold of each other in “EV (Experimental velocity)” value: 6 cm/s for the first, 8 cm/s for the second.

O=CC[C@H]1C[C@H]2C[C@@H]1[C@@H]1CCC[C@H]21 [2-((3aR,4S,5R,7S,7aR)-octahydro-1H-4,7-methanoinden-5-yl)acetaldehyde] and C=CCCC(=O)C(=C)C1CCCCC1 [2-cyclohexyl-1,6-heptadien-3-one] cannot be ordered by “EV (Experimental velocity)” value: 5 cm/s for the first, 5 to 8 cm/s for the second.

CCOc1cc(C)ccc1O [2-ethoxy-4-methylphenol] and Cc1ccc(C(C)C)c(O)c1 [2-isopropyl-5-methylphenol] are within 1.5-fold of each other in “EV (Experimental velocity)” value: 6 cm/s for the first, 7 cm/s for the second.

COc1ccc2ccccc2c1 [2-methoxynaphthalene] and CCCCCCCCC(C)C=O (stereo not shown) [2-methyl decanal] are within 1.5-fold of each other in “EV (Experimental velocity)” value: 6 cm/s for the first, 7 cm/s for the second.

CCCCCCC=CC#N [2-nonenenitrile] and CCCCCC1CCCC1=O (stereo not shown) [2-pentylcyclopentan-1-one] are within 1.5-fold of each other in “EV (Experimental velocity)” value: 6 cm/s for the first, 7 cm/s for the second.

CC(CC=O)CC(C)(C)C (stereo not shown) [3,5,5-trimethylhexanal] and CC(=O)OCCC(C)CCC=C(C)C (stereo not shown) [3,7-dimethyloct-6-en-1-yl acetate] are the same in “EV (Experimental velocity)” value: 5 cm/s for the first, 5 cm/s for the second.

CC(C)=CCCC(C)CC#N (stereo not shown) [3,7-dimethyloct-6-enenitrile] and C=CC(C)(O)CCC=C(C)C (stereo not shown) [3,7-dimethylocta-1,6-dien-3-ol] are the same in “EV (Experimental velocity)” value: 6 cm/s for the first, 6 cm/s for the second.

C=CC(C)(CCC=C(C)C)OC(C)=O (stereo not shown) [3,7-dimethylocta-1,6-dien-3-yl acetate] and CC(C=O)Cc1ccc(C(C)(C)C)cc1 (stereo not shown) [3-(4-(tert-butyl)phenyl)-2-methylpropanal] are the same in “EV (Experimental velocity)” value: 6 cm/s for the first, 6 cm/s for the second.

CCc1ccc(CC(C)(C)C=O)cc1 [3-(4-ethylphenyl)-2,2-dimethylpropanal] and CC1=CCC(C(C)CC=O)CC1 (stereo not shown) [3-(4-methylcyclohex-3-en-1-yl)butanal] are the same in “EV (Experimental velocity)” value: 6 cm/s for the first, 6 cm/s for the second.

CCCCCC1=C(C)CCC1=O [3-methyl-2-pentylcyclopent-2-en-1-one] and Cc1coc2ccc(O)cc12 [3-methylbenzofuran-5-ol] are within 1.5-fold of each other in “EV (Experimental velocity)” value: 6 cm/s for the first, 5 cm/s for the second.

Going from COC(=O)C=Cc1ccccc1 [3-phenyl 2-propenoic acid, methyl ester] to CC(C)C(=O)OC1CC2CC1C1C=CCC21 (stereo not shown) [3a,4,5,6,7,7a-hexahydro-1H-4,7-methanoinden-5-yl isobutyrate], the “EV (Experimental velocity)” value falls from 8 cm/s to 5 cm/s (1.6-fold).

CCC(=O)OC1CC2CC1C1C=CCC21 (stereo not shown) [3a,4,5,6,7,7a-hexahydro-1H-4,7-methanoinden-5-yl propionate] and C=CCc1ccc(O)c(OC)c1 [4-allyl-2-methoxyphenol] are within 1.5-fold of each other in “EV (Experimental velocity)” value: 6 cm/s for the first, 5 cm/s for the second.

COc1ccc(C=O)cc1 [4-methoxybenzaldehyde] and Cc1ncsc1CCO [4-methyl-5-thiazoleethanol] are the same in “EV (Experimental velocity)” value: 5 cm/s for the first, 5 cm/s for the second.

CC(=O)CCc1ccccc1 [4-phenylbutan-2-one] and CC1=CC2CC(C=O)C1CC2C(C)C (stereo not shown) [8-isopropyl-6-methylbicyclo[2.2.2] oct-5-ene-2-carbaldehyde] are within 1.5-fold of each other in “EV (Experimental velocity)” value: 7 cm/s for the first, 6 cm/s for the second.

In the case of CC1CCC2(CCC(=O)O2)CC1 (stereo not shown) [8-methyl-1-oxaspiro(4.5)decan-2-one], the “EV (Experimental velocity)” value is reported as 5 to 8 cm/s.

For CC(O)COCC(C)O (stereo not shown) [1,1′-oxybis(propan-2-ol)], the “EV (Experimental velocity)” value was 8 cm/s and 6 cm/s.
For C=C(C)C1CC=C(C)CC1 (stereo not shown) [1-methyl-4-(prop-1-en-2-yl)cyclohex-1-ene], the “EV (Experimental velocity)” value was 7 cm/s and 5 cm/s.

Reference: patent US20200299612A1, “HIGH PERFORMING, HIGH IMPACT BLOOM ACCORD” (International Flavors & Fragrances Inc., priority 2016, published 2020)
